Measured values as given in paper PMC8808184.
These are yes or no findings as the source states them, for the method shown. Binding can be weak; no strength is given.

By UniProt entry, the sequences of proteins in these tests, tags left out. Where a name states a change or a piece, a line headed by the entry shows the natural chain unless it says otherwise.
UniProt Q9P232: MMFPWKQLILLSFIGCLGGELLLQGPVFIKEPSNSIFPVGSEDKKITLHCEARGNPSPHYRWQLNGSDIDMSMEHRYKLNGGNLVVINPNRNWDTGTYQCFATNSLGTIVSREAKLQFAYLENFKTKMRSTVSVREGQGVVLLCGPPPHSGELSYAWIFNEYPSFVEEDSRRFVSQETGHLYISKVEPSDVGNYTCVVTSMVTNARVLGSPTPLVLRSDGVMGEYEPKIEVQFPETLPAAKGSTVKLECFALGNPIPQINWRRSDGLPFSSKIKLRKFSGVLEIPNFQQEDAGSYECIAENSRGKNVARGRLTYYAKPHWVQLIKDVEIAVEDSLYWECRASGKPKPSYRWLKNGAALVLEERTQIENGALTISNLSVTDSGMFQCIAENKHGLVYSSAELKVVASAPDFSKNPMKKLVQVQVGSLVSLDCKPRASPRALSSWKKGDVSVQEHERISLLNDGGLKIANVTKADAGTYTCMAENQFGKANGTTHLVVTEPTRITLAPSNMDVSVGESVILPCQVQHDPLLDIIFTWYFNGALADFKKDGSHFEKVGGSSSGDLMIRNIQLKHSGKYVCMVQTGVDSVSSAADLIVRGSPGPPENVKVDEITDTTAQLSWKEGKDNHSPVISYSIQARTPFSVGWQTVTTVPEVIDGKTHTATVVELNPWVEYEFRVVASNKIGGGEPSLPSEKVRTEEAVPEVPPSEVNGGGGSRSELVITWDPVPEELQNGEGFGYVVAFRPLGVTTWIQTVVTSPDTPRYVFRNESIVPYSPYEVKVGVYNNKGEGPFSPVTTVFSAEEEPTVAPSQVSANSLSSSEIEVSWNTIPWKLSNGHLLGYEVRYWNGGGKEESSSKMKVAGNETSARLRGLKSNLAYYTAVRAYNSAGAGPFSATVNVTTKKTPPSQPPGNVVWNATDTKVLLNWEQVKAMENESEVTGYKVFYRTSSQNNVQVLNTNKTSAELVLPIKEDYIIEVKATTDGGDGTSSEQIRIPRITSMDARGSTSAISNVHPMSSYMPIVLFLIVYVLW
UniProt Q8IWV2: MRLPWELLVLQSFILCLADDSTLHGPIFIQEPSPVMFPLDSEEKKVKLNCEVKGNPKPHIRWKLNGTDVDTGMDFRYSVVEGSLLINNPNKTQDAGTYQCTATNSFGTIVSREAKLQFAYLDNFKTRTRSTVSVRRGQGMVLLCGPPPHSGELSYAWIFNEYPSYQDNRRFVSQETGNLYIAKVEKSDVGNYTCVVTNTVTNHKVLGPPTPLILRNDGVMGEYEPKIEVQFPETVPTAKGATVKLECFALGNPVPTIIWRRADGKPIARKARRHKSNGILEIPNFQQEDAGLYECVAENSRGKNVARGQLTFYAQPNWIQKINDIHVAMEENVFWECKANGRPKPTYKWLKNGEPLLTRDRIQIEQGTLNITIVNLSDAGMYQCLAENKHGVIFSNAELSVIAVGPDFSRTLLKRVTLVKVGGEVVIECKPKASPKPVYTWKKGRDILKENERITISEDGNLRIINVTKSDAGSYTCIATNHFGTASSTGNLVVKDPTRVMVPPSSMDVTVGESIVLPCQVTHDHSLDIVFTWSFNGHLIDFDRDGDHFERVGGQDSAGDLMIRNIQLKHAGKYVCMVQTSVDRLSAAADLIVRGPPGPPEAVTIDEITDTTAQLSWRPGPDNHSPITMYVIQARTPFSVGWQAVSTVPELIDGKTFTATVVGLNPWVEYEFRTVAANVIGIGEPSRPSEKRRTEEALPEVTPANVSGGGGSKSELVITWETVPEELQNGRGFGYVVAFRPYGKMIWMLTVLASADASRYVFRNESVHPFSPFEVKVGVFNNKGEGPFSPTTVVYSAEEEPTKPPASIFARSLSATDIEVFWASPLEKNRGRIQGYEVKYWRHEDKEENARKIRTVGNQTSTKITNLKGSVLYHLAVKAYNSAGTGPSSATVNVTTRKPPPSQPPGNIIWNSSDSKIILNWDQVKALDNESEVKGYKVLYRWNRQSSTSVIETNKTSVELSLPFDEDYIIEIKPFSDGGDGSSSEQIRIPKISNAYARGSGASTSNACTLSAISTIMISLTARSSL

Target: T1, E1 domain of human APLP1 (human) (UniProt P51693)
T1 sequence (chain, biotin (EZ-Link NHS-PEG4-Biotin, 1,1 molar ratio) where immobilised in BLI): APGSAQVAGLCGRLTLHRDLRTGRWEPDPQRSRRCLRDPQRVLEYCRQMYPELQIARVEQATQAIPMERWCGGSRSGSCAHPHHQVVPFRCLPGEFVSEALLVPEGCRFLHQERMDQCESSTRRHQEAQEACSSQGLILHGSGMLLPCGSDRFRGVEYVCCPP
Experiment: BLI; biotinylated E1 domain ([…] nM) immobilised on streptavidin tips, CNTN FN1–FN3 in solution; room temperature; 150 mM NaCl, 10 mM Na-Hepes pH 7.5, 1 mg/ml BSA, 0.02% Tween-20; BLItz or Octet K2; KD from the signal at equilibrium; both purified

| binding | Substance |
| --- | --- |
| binds | FN1–FN3 region of CNTN3 titrated against human APLP1(E1) (from UniProt Q9P232) (domain or fragment) |
| binds | FN1–FN3 region of human CNTN4 (from UniProt Q8IWV2) (domain or fragment) |
